Data: article doi:10.1101/2022.10.17.512631 (bioRxiv, 2022)
Results are given in words; binding and its absence hold for the method and conditions named. For some of these results: Binding seen in cells or lysates may run through a third protein. Some entries that bind do so weakly or less than the wild type.

By UniProt entry, the sequences of proteins in these tests, tags left out. Where a name states a change or a piece, a line headed by the entry shows the natural chain unless it says otherwise.
UniProt Q86U44: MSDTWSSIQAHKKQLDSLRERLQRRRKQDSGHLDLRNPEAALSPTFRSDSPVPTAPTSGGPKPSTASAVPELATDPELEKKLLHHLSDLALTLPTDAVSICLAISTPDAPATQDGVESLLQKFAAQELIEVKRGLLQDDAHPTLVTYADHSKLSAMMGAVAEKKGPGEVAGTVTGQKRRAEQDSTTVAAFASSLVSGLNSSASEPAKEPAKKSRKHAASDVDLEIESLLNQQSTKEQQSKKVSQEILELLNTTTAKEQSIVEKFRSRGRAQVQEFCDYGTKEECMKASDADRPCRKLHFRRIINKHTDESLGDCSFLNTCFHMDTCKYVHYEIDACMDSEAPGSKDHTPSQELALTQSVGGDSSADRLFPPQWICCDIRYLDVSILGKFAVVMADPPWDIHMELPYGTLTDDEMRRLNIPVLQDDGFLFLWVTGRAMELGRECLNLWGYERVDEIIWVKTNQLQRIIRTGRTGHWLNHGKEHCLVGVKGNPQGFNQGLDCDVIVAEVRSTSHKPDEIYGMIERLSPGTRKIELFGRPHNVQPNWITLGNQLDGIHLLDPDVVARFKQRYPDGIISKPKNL
UniProt O94992: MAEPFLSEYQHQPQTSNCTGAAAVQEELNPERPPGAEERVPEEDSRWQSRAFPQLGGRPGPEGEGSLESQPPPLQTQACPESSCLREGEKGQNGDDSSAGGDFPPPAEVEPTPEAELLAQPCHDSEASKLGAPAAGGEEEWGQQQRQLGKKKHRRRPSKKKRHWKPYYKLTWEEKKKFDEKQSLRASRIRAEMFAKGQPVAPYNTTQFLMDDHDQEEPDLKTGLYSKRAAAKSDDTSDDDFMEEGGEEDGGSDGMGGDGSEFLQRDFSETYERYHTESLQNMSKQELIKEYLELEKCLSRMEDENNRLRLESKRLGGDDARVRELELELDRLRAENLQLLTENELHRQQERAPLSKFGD

What was measured:
[1] = target: phosphomimetic S43E METTL3 (human) (UniProt Q86U44); assay: SPR
[2] = target: Flag-HEXIM1 (UniProt O94992); assay: co-IP
[3] = target: GST-METTL3 (non-phosphorylated) (human) (UniProt Q86U44); assay: pull-down
[4] = target: Flag-METTL3 (human) (UniProt Q86U44); assay: co-IP

HEXIM1 (from UniProt O94992 1-359)
binding [1]: no binding

METTL3 (in cells that express Flag-HEXIM1) (from UniProt Q86U44 1-580) (enzyme)
binding [2]: binds

endogenous HEXIM1 (from UniProt O94992 1-359)
binding [3]: binds | binding [4]: binds
